From patent US11427783B2, “Perfuming compositions” (Firmenich SA, priority 2016, dated 2022)

Experiment: Odor threshold of perfuming compounds in air
[1] = Table 5, perfuming compounds having a green note
[2] = Table 8, perfuming compounds having a sweet note
[3] = Table 9, perfuming compounds having a gourmand note
[4] = perfuming compounds having a fruity note (Table 6)
[5] = Table 6, perfuming compounds having a fruity note
[6] = Table 10, perfuming compounds having a woody note

Row | Molecule | Odor Threshold [1] | Odor Threshold [4] | other results
1 | c1ccc(CCCc2ccccn2)cc1 [2-(3-PHENYLPROPYL)PYRIDINE] | 1.29E−06 μg/l air |  | 
2 | CCOC(=O)CC1(C)OCCO1 [ETHYL 2-METHYL-1,3-DIOXOLANE-2-ACETATE] | 1.62E−03 μg/l air | 1.62E−03 μg/l air | Odor Threshold (μg/l air) [2]: 1.62E−03 μg/l air; Odor Threshold (μg/l air) [3]: 1.62E−03 μg/l air
3 | CCOC(=O)C12CCCC1C1CCC2C1 (stereo not drawn) | 6.87E−05 μg/l air |  | Odor Threshold (μg/l air) [5]: 6.87E−05 μg/l air
4 | CC(=O)OCCc1ccccc1 [2-PHENYLETHYL ACETATE] |  | 2.14E−03 μg/l air | Odor Threshold (μg/l air) [2]: 2.14E−03 μg/l air; Odor Threshold (μg/l air) [3]: 2.14E−03 μg/l air
5 | CC1OCCC12NCCS2 (racemic) |  |  | Odor Threshold (μg/l air) [2]: 2.53E−06 μg/l air
6 | C=CC(C)(O)CCC=C(C)C (racemic) [(+−)-3,7-dimethyl-1,6-octadien-3-ol] |  | 8.89E−05 μg/l air | 
7 | CCCCCCCC=O [OCTANAL] | 2.77E−04 μg/l air |  | 
8 | COc1ccc(CC(C)C=O)cc1 (racemic) [(+−)-3-(4-methoxyphenyl)-2-methylpropanal] | 9.79E−03 μg/l air |  | 
9 | CCc1occc(=O)c1O [2-ETHYL-3-HYDROXY-4(4H)-PYRANONE] |  |  | Odor Threshold (μg/l air) [5]: 6.45E−05 μg/l air; Odor Threshold (μg/l air) [2]: 6.45E−05 μg/l air
10 | C/C=C/c1ccc(O)c(OC)c1 [2-methoxy-4-[(1E)-1-propen-1-yl]phenol] |  |  | Odor Threshold (μg/l air) [2]: 6.63E−06 μg/l air; Odor Threshold (μg/l air) [3]: 6.63E−06 μg/l air
11 | CC(C)(O)CCC1CCCCC1 [4-CYCLOHEXYL-2-METHYL-2-BUTANOL] |  |  | Odor Threshold (μg/l air) [5]: 2.83E−02 μg/l air
12 | C=CC(CCCCC)OC(C)=O (racemic) [(+−)-1-PENTYL-2-PROPENYL ACETATE] |  | 4.84E−02 μg/l air | 
13 | CCOC(C)OC1CCCCCCCCCCC1 (racemic) [(+−)-(1-ethoxyethoxy)cyclododecane] |  |  | Odor Threshold (μg/l air) [6]: 2.51E−02 μg/l air
14 | C=CC(=C)CCC=C(C)C |  | 4.12E−02 μg/l air | 
15 | CC(C)CC(=O)OCc1ccccc1 [BENZYL 3-METHYLBUTANOATE] |  |  | Odor Threshold (μg/l air) [5]: 7.31E−03 μg/l air; Odor Threshold (μg/l air) [2]: 7.31E−03 μg/l air
16 | Cc1cnc(C)c(C)n1 [2,3,5-TRIMETHYLPYRAZINE] |  |  | Odor Threshold (μg/l air) [2]: 2.82E−04 μg/l air
17 | CC(=O)C=CC1C(C)CCC(C)C1(C)C (racemic) |  |  | Odor Threshold (μg/l air) [6]: 5.14E−04 μg/l air
18 | CCCCCC(=O)CC [3-OCTANONE] |  | 4.53E−02 μg/l air | 
19 | CC/C=C\CCCCC=O [(Z)-6-NONENAL] | 2.91E−05 μg/l air |  | 
20 | (2,2-DIMETHOXYETHYL)BENZENE | 4.55E−02 μg/l air |  | 
21 | CCC/C=C/C=O [(2E)-2-HEXENAL] | 2.53E−03 μg/l air | 2.53E−03 μg/l air | 
22 | C=CC(C)CC(=O)CC(C)C (racemic) |  | 2.78E−01 μg/l air | 
23 | CC(C)c1cccc(C(C)CC=O)c1 (racemic) [(+−)-3-(3-ISOPROPYL-1-PHENYL)BUTANAL] | 7.71E−04 μg/l air |  | 
24 | CC(=O)CCC=C(C)C [6-METHYL-5-HEPTEN-2-ONE] | 1.06E−01 μg/l air | 1.06E−01 μg/l air | 
25 | CC(C)=CCCC(C)CCOC=O (racemic) [(+−)-3,7-DIMETHYL-6-OCTENYL FORMATE] | 1.72E−03 μg/l air | 1.72E−03 μg/l air | 

Row | Molecule | Odor Threshold [1] | Odor Threshold [4] | other results
26 | COC(OC)C(C)c1ccccc1 (stereo not drawn) [1,1-DIMETHOXY-2-PHENYLPROPANE] | 1.42E−02 μg/l air |  | 
27 | CCCCC/C(C=O)=C\c1ccccc1 [(E)-2-PENTYL-3-PHENYL-2-PROPENAL] |  |  | Odor Threshold (μg/l air) [5]: 3.64E−04 μg/l air
28 | CC/C=C\CC/C=C/C=O [(2E,6Z)-2,6-NONADIENAL″, (2E,6Z)-2,6-NONADIENAL] | 1.46E−04 μg/l air |  | 
29 | CC(=O)O[C@@H]1C(C)(C)CCC[C@]12CC=C(C)C[C@H]2C (racemic) |  |  | Odor Threshold (μg/l air) [6]: 3.79E−03 μg/l air
30 | CCC(=O)OCC(C)(C)OC(C)C1CCCC(C)(C)C1 (single isomer, unassigned; (+)) |  |  | Odor Threshold (μg/l air) [5]: 3.69E−04 μg/l air
31 | CCCCCC1CCCC(=O)O1 (racemic) [(+−)-6-pentyltetrahydro-2H-pyran-2-one] |  |  | Odor Threshold (μg/l air) [5]: 3.72E−05 μg/l air; Odor Threshold (μg/l air) [2]: 3.72E−05 μg/l air; Odor Threshold (μg/l air) [3]: 3.72E−05 μg/l air
32 | O=COCCc1ccccc1 [2-PHENYLETHYL FORMATE] | 8.34E−04 μg/l air | 8.34E−04 μg/l air | 
33 | CC1=CCC2C(C1)C1CC2C2(C1)OC2C (racemic) | 9.93E−04 μg/l air |  | Odor Threshold (μg/l air) [5]: 9.93E−04 μg/l air
34 | CCCCCCCCOC(C)=O [octyl acetate] |  | 1.76E−01 μg/l air | 
35 | CC(=O)C(C)O (racemic) [(+−)-3-HYDROXY-2-BUTANONE] | 1.46E−02 μg/l air |  | Odor Threshold (μg/l air) [2]: 1.46E−02 μg/l air; Odor Threshold (μg/l air) [3]: 1.46E−02 μg/l air
36 | CC1=CC[C@H](C(C)CC2CCCC2=O)CC1 (stereo partly drawn) |  |  | Odor Threshold (μg/l air) [5]: 1.66E−04 μg/l air; Odor Threshold (μg/l air) [2]: 1.66E−04 μg/l air; Odor Threshold (μg/l air) [3]: 1.66E−04 μg/l air
37 | CC/C=C\CCOC=O [(Z)-3-HEXENYL FORMATE] | 2.11E−03 μg/l air | 2.11E−03 μg/l air | 
38 | CC(=O)/C(C)=C/C1C(C)=CCCC1(C)C (racemic) |  |  | Odor Threshold (μg/l air) [5]: 1.92E−04 μg/l air; Odor Threshold (μg/l air) [6]: 5.03E−05 μg/l air
39 | CCC(CC(C)CC)=NO (stereo not drawn) [5-METHYL-3-HEPTANONE OXIME] | 8.80E−03 μg/l air |  | Odor Threshold (μg/l air) [5]: 8.80E−03 μg/l air; Odor Threshold (μg/l air) [2]: 8.80E−03 μg/l air
40 | C=CCOC(=O)CCCCC [ALLYL HEXANOATE] |  | 4.58E−02 μg/l air | 
41 | CC1CC(C)(c2ccccc2)CO1 (racemic) | 5.04E−04 μg/l air | 5.04E−04 μg/l air | 
42 | CC/C=C\CCOC(=O)C(C)CC (racemic) [(+−)-(Z)-3-HEXENYL 2-METHYLBUTANOATE] | 1.96E−02 μg/l air | 1.96E−02 μg/l air | 
43 | CC/C=C\CC1=C(C)CCC1=O |  |  | Odor Threshold (μg/l air) [2]: 2.16E−04 μg/l air; Odor Threshold (μg/l air) [3]: 2.16E−04 μg/l air
44 | C=CC1(C)CCCC(C)(C)O1 (racemic) | 1.64E−01 μg/l air |  | 
45 | CCCCC/C=C\C=C\C(=O)OCC [ethyl (2E,4Z)-2,4-decadienoate] | 3.07E−04 μg/l air |  | Odor Threshold (μg/l air) [5]: 3.07E−04 μg/l air
46 | CCCCCCC=O [HEPTANAL] | 2.03E−03 μg/l air |  | 
47 | COC(OC)C(C)(C)CC=C(C)C |  |  | Odor Threshold (μg/l air) [6]: 1.26E−02 μg/l air
48 | COCCc1ccccc1 [(2-METHOXYETHYL)BENZENE] | 6.32E−04 μg/l air |  | 
49 | O=Cc1ccc2c(c1)OCO2 [benzo[d][1,3]dioxole-5-carbaldehyde] |  |  | Odor Threshold (μg/l air) [3]: 1.01E−04 μg/l air
50 | O=C1CCCCCCCCCCC(=O)OCCO1 [1,4-dioxacyclohexadecane-5,16-dione] |  |  | Odor Threshold (μg/l air) [2]: 7.05E−04 μg/l air

Row | Molecule | Odor Threshold [1] | Odor Threshold [4] | other results
51 | CCCCCCOC(C)=O [HEXYL ACETATE] | 1.32E−01 μg/l air | 1.32E−01 μg/l air | 
52 | CCCC1CCC(=O)O1 (racemic) [(+−)-4-HEPTANOLIDE] |  |  | Odor Threshold (μg/l air) [2]: 5.18E−04 μg/l air
53 | C=C1CCCC(C)(C)C1C(=O)/C=C/C (racemic) |  | 3.73E−03 μg/l air | Odor Threshold (μg/l air) [2]: 3.73E−03 μg/l air; Odor Threshold (μg/l air) [3]: 3.73E−03 μg/l air
54 | COC(C)(C)[C@H]1CC=C(C)CC1 | 1.99E−01 μg/l air |  | 
55 | CCCCCC/C(C=O)=C\c1ccccc1 [(2E)-2-benzylideneoctanal] | 1.91E−03 μg/l air |  | Odor Threshold (μg/l air) [5]: 1.91E−03 μg/l air
56 | CC/C=C\CCOC(=O)C(C)C [(Z)-3-HEXENYL ISOBUTYRATE] | 4.54E−02 μg/l air | 4.54E−02 μg/l air | 
57 | COCC(C)Cc1ccccc1 (racemic) [(+−)-(3-methoxy-2-methylpropyl)benzene] | 1.51E−02 μg/l air | 1.51E−02 μg/l air | 
58 | CCCCCC(=O)OCC [ETHYL HEXANOATE] | 9.11E−04 μg/l air | 9.11E−04 μg/l air | Odor Threshold (μg/l air) [2]: 9.11E−04 μg/l air; Odor Threshold (μg/l air) [3]: 9.11E−04 μg/l air
59 | CCC(=O)OC/C=C/c1ccccc1 [(E)-3-PHENYL-2-PROPENYL PROPANOATE] |  |  | Odor Threshold (μg/l air) [5]: 1.28E−04 μg/l air
60 | (−)-(1S)-2,6,6-TRIMETHYL-BICYCLO[3.1.1]HEPT-2-ENE | 1.02E−01 μg/l air |  | 
61 | Cc1occc(=O)c1O [3-HYDROXY-2-METHYL-4(4H)-PYRANONE] |  |  | Odor Threshold (μg/l air) [5]: 4.17E−04 μg/l air; Odor Threshold (μg/l air) [2]: 4.17E−04 μg/l air
62 | CC1=CC2CC(C=O)C1CC2C(C)C (stereo not drawn) [8-ISOPROPYL-6-METHYL-BICYCLO[2.2.2]OCT-5-ENE-2-CARBALDEHYDE] | 7.11E−05 μg/l air |  | 
63 | CC(C)CC(=O)O [3-METHYLBUTANOIC ACID] |  | 2.23E−04 μg/l air | Odor Threshold (μg/l air) [6]: 2.23E−04 μg/l air
64 | CC(=O)OCCC(C)CC(C)(C)C (stereo not drawn) [3,5,5-TRIMETHYLHEXYL ACETATE] |  | 1.28E+00 μg/l air | 
65 | CCCCCCO [1-hexanol] | 1.17E−01 μg/l air |  | 
66 | C=C/C=C/C=C\CCCCC | 3.76E−05 μg/l air |  | 
67 | CCCC(=NO)C(C)C [2-METHYL-3-HEXANONE OXIME] | 4.81E−04 μg/l air |  | 
68 | CCC(=CCC1CC=C(C)C1(C)C)CO (racemic) |  |  | Odor Threshold (μg/l air) [6]: 7.80E−05 μg/l air
69 | CC(=O)OC1CCC2C(C)(C)CCCC2(C)C1 (stereo not drawn) [5,5,8a-trimethyldecahydro-2-naphthalenyl acetate] |  |  | Odor Threshold (μg/l air) [6]: 4.19E−04 μg/l air
70 | CC1(C)CCC[C@@]2(C)[C@H]1CC[C@@]1(C)OCC[C@@H]21 |  |  | Odor Threshold (μg/l air) [6]: 2.16E−03 μg/l air
71 | C=C1C2CCC(C)(OCC)C1CCC2(C)C (racemic) |  |  | Odor Threshold (μg/l air) [6]: 1.37E−01 μg/l air
72 | SCc1ccco1 [2-FURANMETHANETHIOL] |  |  | Odor Threshold (μg/l air) [2]: 1.43E−09 μg/l air
73 | CCCCCCCCCCO [1-DECANOL] | 1.13E−02 μg/l air |  | 
74 | COc1ccc(C=O)cc1 [4-METHOXYBENZALDEHYDE] | 1.81E−05 μg/l air |  | 
75 | COC(=O)C=C1CCCC1 [methyl cyclopentylideneacetate] |  | 2.80E−02 μg/l air | 

Counter-ions that a name gives are not always drawn.
